Data as given in PubChem BioAssay AID1487 (National Center for Advancing Translational Sciences (NCATS), 2009).
The list shows a part of the results. These are further read-outs of the screen, such as a control signal, another cell line or another target. No call is given for them. The list favours compounds with an active or inconclusive main result. The note in brackets gives the kind of curve behind each potency; many fits are weak.

Experiment: qHTS Assay for Modulators of Lamin A Splicing
Conditions: HeLa LMNA splicing GFP/RFP minigene ratio, 48 h
Procedure, shortened: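 S3 HeLa stable clones carrying a lamin A-EGFP splicing minigene plus DsRed2 were seeded at 600 cells/well in Opti-MEM with 2% FBS, pin-dosed and incubated 48 h at 37°C. Acumen cytometry (488 nm) gave the GFP/RFP total-intensity ratio.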

[1] = measured here: GFP splicing reporter channel
[2] = measured here: RFP viability control channel

Row | SMILES | AC50 [1] | AC50 [2]
1 | CCn1ccnc1CNC(=O)CC1C(=O)NCCN1Cc1ccccc1F (centres undefined) | 0.0708 µM [falling, full curve, poor fit] | 0.0251 µM [falling, full curve, poor fit]
2 | Cc1nn(C)c(C)c1C1C(C#N)=C(N)OC2=C1C(=O)CCC2 (centres undefined) |  | 12.6 µM [rising, partial curve, poor fit]
3 | CCOC(=O)c1ccccc1Nc1cc(C)nc2nc(-c3ccco3)nn12 |  | 1.12 µM [rising, full curve, poor fit]
4 | CC1(C)C/C(=N\NC(=S)Nc2ccccc2F)c2cc(O)ccc2O1 | 0.00708 µM [rising, full curve] | 
5 | COc1cccc(N2CCN(c3c(C#N)c(C(F)(F)F)nn3C)CC2)c1 |  | 14.1 µM [rising, single point]
6 | CCn1c(SCC(=O)N=Nc2c(O)[nH]c3ccccc23)nc2ccccc21 |  | 0.1 µM [rising, full curve, poor fit]
7 | O=C(NCCCN1CCN(c2ccccc2)CC1)c1nnc(Cc2ccc(F)cc2)o1 | 8.91 µM [falling, partial curve, poor fit] | 35.5 µM [falling, partial curve, poor fit]
8 | O=C(N/N=C/c1cc(Br)ccc1O)c1ccccc1Cl | 35.5 µM [rising, single point] | 35.5 µM [rising, single point]
9 | CC(C)c1ccc(/C=N/NC(=O)CN(c2cccc(Cl)c2Cl)S(C)(=O)=O)cc1 | 35.5 µM [falling, single point] | 35.5 µM [falling, single point]
10 | CCOc1ccc(CC(=O)Nc2ccc(NC(=O)c3ccco3)cc2)cc1OCC |  | 11.2 µM [rising, partial curve, poor fit]
11 | COc1cc(C(=O)N2CCN(Cc3ccccc3C(F)(F)F)CC2)cc(OC)c1OC | 31.6 µM [rising, single point] | 31.6 µM [rising, single point]
12 | O=C(COc1ccccc1F)N1CCN(S(=O)(=O)/C=C/c2ccccc2)CC1 |  | 12.6 µM [rising, single point]
13 | COC(=O)c1cn(NC(=O)c2cnccn2)c(=O)c2ccccc12 | 22.4 µM [rising, single point] | 22.4 µM [rising, partial curve]
14 | O=C(Nc1cccc(-c2nc3ncccc3o2)c1)c1cc2ccccc2o1 | 35.5 µM [rising, single point] | 22.4 µM [rising, single point]
15 | CC(=O)c1cc2c(cc1N/C(=N/S(=O)(=O)c1ccccc1)c1ccc(Cl)cc1)OCO2 |  | 4.47 µM [rising, partial curve, poor fit]
16 | COc1ccc(NC(=O)c2cccc(S(=O)(=O)Nc3ccc(Br)cc3)c2)cn1 |  | 3.98 µM [rising, full curve]
17 | CC(C)c1ccc(NC(c2nnc(-c3ccccc3)o2)c2ccc(F)cc2Cl)cc1 (centres undefined) |  | 11.2 µM [rising, partial curve]
18 | CCOc1ccc(C(=O)NCc2ccncc2)cc1 | 17.8 µM [rising, single point] | 12.6 µM [rising, single point]
19 | Cc1cc(C)c(OCC(=O)Nc2nc(-c3ccccn3)cs2)c(C)c1 |  | 0.0224 µM [rising, full curve, poor fit]
20 | Cc1cc(C)cc(N(C(=O)CCC(=O)Nc2ccccn2)C(C(=O)NC(C)C)c2ccc(O)cc2)c1 (centres undefined) |  | 0.00316 µM [rising, full curve, poor fit]
21 | Cc1ccccc1Nc1nc(N)nc(CSc2nnc3sc4ccccc4n23)n1 |  | 2.51 µM [falling, full curve, poor fit]
22 | O=C(C1CCCO1)N1CCN(C(=S)Nc2ccc(Cl)c(Cl)c2)CC1 (centres undefined) | 10 µM [rising, partial curve, poor fit] | 11.2 µM [rising, partial curve]
23 | CCCCC(=O)NC(c1ccco1)c1c(O)ccc2ccccc12 (centres undefined) |  | 22.4 µM [rising, single point]
24 | C=CCN1C(=O)S/C(=C\c2ccc(N3CCOCC3)cc2C)C1=O | 12.6 µM [rising, single point] | 
25 | CC(=O)c1cc(-c2ccccc2)n(CCC(=O)Nc2ccc(C(C)C)cc2)c1C | 7.94 µM [rising, partial curve] | 12.6 µM [rising, single point]
26 | COc1ccccc1OCCNc1cc(N2CCCCC2)ccc1[N+](=O)[O-] | 10 µM [rising, single point] | 14.1 µM [rising, partial curve]
27 | CCOC(=O)c1ccc(N/C(=N\S(=O)(=O)c2ccccc2C)c2ccccc2)cc1 | 17.8 µM [falling, single point] | 22.4 µM [falling, single point]

Row | SMILES | AC50 [1] | AC50 [2]
28 | COC(CN1C(=O)C(O)=C(C(C)=O)C1c1ccccn1)OC (centres undefined) |  | 5.62 µM [falling, single point]
29 | CCn1c(SCC(=O)c2ccc(O)c(O)c2)nnc1-c1ccc(C)cc1 | 15.8 µM [rising, single point] | 31.6 µM [rising, single point]
30 | Cc1nc2cc3c(cc2c(C)c1C(=O)OC(C)C)OCO3 |  | 2.51 µM [rising, full curve, poor fit]
31 | Cc1cc(C(=O)CN2C(=O)NC3(CCCCC3)C2=O)c(C)n1-c1ccc2c(c1)OCO2 |  | 35.5 µM [rising, single point]
32 | Cc1cccc(OCC(=O)Nc2ccc3nc(Nc4cccc(C(F)(F)F)c4)cc(C)c3c2)c1 | 10 µM [falling, partial curve] | 12.6 µM [falling, partial curve]
33 | CCC(=O)N1C2=C(c3ccccc3[C@@H]1CC(=O)Nc1ccc3ccccc3c1)[C@@H]1C(=O)N(c3ccccc3)C(=O)[C@@H]1[C@H](C)C2 | 0.794 µM [rising, partial curve, poor fit] | 
34 | CC(C)(C)c1nc(SCC(=O)c2ccccc2)c2ccccc2n1 | 11.2 µM [rising, partial curve] | 22.4 µM [rising, single point]
35 | COc1cc(Cl)c(C)cc1NC(=O)CN(C)Cc1cccc(OC)c1OC | 20 µM [falling, partial curve, poor fit] | 28.2 µM [falling, single point]
36 | CCC(CC)c1nnc(NC(=O)c2cccnc2SC)s1 | 0.1 µM [falling, full curve, poor fit] | 
37 | CCn1c(SCC(=O)Nc2nc3c(s2)CCCC3)nnc1-c1ccccc1 | 3.55 µM [rising, full curve] | 5.01 µM [rising, partial curve]
38 | CCOc1cc(C#N)c(NC(=O)c2cccnc2)cc1OCC | 7.08 µM [falling, full curve, poor fit] | 6.31 µM [falling, full curve, poor fit]
39 | Cc1nc(NC(=O)c2ccco2)sc1C(=O)Nc1ccc(Br)cc1 |  | 11.2 µM [falling, partial curve]
40 | CC(=O)N(CCC(Cc1ccccc1)c1ccc2c(c1)OCO2)Cc1ccccc1F (centres undefined) |  | 7.94 µM [rising, partial curve]
41 | Cc1ccccc1CN1C(=O)C(O)(CC(=O)c2ccccc2)c2cc(Cl)ccc21 (centres undefined) |  | 12.6 µM [falling, single point]
42 | Cc1c(NC(=O)C(C)n2cc([N+](=O)[O-])cn2)c(=O)n(-c2ccccc2)n1C (centres undefined) |  | 0.501 µM [falling, full curve]
43 | Cc1ccc(F)cc1NC(=O)c1ccc(NS(=O)(=O)c2ccc(Br)s2)cc1 |  | 14.1 µM [rising, single point]
44 | COC(=O)c1ccccc1NC(=O)CN1CCC(n2nnc3cc(C)ccc32)CC1 | 2.82 µM [rising, single point] | 
45 | O=C(NCc1ccc2c(c1)OCO2)c1ccc(CS(=O)(=O)c2ccc(Br)cc2)o1 |  | 35.5 µM [rising, single point]
46 | Cc1cc(N/N=C/c2ccc(O)cc2)nc(NS(=O)(=O)c2ccccc2)n1 |  | 35.5 µM [rising, single point]
47 | CCOC(=O)c1c(S(=O)(=O)NCC(=O)N2CCN(c3cccc(Cl)c3)CC2)c(C)n(C)c1C | 0.126 µM [falling, full curve, poor fit] | 0.158 µM [falling, full curve, poor fit]
48 | CCOC(=O)N1CCN(S(=O)(=O)c2ccc3c(c2)SC(C)C(=O)N3)CC1 (centres undefined) | 1.78 µM [rising, partial curve, poor fit] | 5.62 µM [rising, partial curve]
49 | CSc1ncccc1C(=O)OCC(=O)c1cccc(Br)c1 | 35.5 µM [falling, partial curve, poor fit] | 
50 | Brc1ccc([C@H]2CN3CCSC3=N2)cc1 | 5.01 µM [falling, partial curve, poor fit] | 5.62 µM [falling, partial curve, poor fit]
51 | CCn1c(COc2ccccc2C)nnc1SCC(=O)CC(=O)Nc1ccccc1 |  | 10 µM [rising, partial curve, poor fit]
52 | Nc1ccc(C2=Nc3cccc4cccc(c34)N2)cc1 |  | 20 µM [rising, single point]
53 | O=C(Nc1cc(S(=O)(=O)N2CCCCC2)ccc1O)c1ccccc1NS(=O)(=O)c1ccc(F)c(F)c1 |  | 2 µM [rising, partial curve, poor fit]

Sorted by SMILES length (largest number first): some entries from above
Row | SMILES | AC50 [1] | AC50 [2]
41 | Cc1ccccc1CN1C(=O)C(O)(CC(=O)c2ccccc2)c2cc(Cl)ccc21 (centres undefined) |  | 12.6 µM [falling, single point]
44 | COC(=O)c1ccccc1NC(=O)CN1CCC(n2nnc3cc(C)ccc32)CC1 | 2.82 µM [rising, single point] | 
29 | CCn1c(SCC(=O)c2ccc(O)c(O)c2)nnc1-c1ccc(C)cc1 | 15.8 µM [rising, single point] | 31.6 µM [rising, single point]
34 | CC(C)(C)c1nc(SCC(=O)c2ccccc2)c2ccccc2n1 | 11.2 µM [rising, partial curve] | 22.4 µM [rising, single point]
